The experiment addresses T1, chemokine receptor CCR10 (mouse (endogenous in db/db mouse skin wounds)) (UniProt Q9JL21).
T1 sequence: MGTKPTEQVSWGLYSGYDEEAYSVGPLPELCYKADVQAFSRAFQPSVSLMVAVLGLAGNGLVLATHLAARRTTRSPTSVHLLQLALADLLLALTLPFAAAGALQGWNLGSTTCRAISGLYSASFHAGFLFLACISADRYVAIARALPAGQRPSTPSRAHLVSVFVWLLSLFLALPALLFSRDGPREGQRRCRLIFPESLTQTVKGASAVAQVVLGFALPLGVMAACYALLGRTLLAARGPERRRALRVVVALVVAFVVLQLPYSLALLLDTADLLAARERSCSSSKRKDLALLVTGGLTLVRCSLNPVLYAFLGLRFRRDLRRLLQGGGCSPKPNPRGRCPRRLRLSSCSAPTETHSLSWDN
Put plainly: co-IP; anti-CCR10 Ab added to lysates (2% ODG, Tris buffer) of day 10 dorsal wounds of db/db mice treated with 1 ug anti-CCL28 Ab or control IgG; Western blotting with anti-eNOS Ab and anti-CCR10 Ab. (A western blot detects proteins with antibodies after separation by electrophoresis.)

Results are given in words; binding and its absence hold for the method and conditions named. In cells and extracts the contact can be indirect. Some entries that bind do so weakly or less than the wild type.

B1: endothelial nitric oxide synthase (eNOS) (enzyme, UniProt P70313 1-1202)
chain: MGNLKSVGQEPGPPCGLGLGLGLGLCGKQGPASPAPEPSQAPAPPSPTRPAPDHSPPLTRPPDGPRFPRVKNWEVGSITYDTLSAQAQQDGPCTSRRCLGSLVFPRKLQSRPTQGPSPTEQLLGQARDFINQYYNSIKRSGSQAHEQRLQEVEAEVAATGTYQLRESELVFGAKQAWRNAPRCVGRIQWGKLQVFDARDCRTAQEMFTYICNHIKYATNRGNLRSAITVFPQRCPGRGDFRIWNSQLIRYAGYRQQDGSVRGDPANVEITELCIQHGWTPGNGRFDVLPLLLQAPDEPPELFTLPPEMVLEVPLEHPTLEWFAALGLRWYALPAVSNMLLEIGGLEFPAAPFSGWYMSSEIGMRDLCDPHRYNILEDVAVCMDLDTRTTSSLWKDKAAVEINVAVLHSYQLAKVTIVDHHAATASFMKHLENEQKARGGCPADWAWIVPPISGSLTPVFHQEMVNYFLSPAFRYQPDPWKGSAAKGAGITRKKTFKEVANAVKISASLMGTVMAKRVKATILYGSETGRAQSYAQQLGRLFRKAFDPRVLCMDEYDVVSLEHEALVLVVTSTFGNGDPPENGESFAAALMEMSGPYNSSPRPEQHKSYKIRFNSVSCSDPLVSSWRRKRKESSNTDSAGALGTLRFCVFGLGSRAYPHFCAFARAVDTRLEELGGERLLQLGQGDELCGQEEAFRGWAQAAFQAACETFCVGEDAKAAARDIFSPKRSWKRQRYRLSTQAESLQLLPGLTHVHRRKMFQATILSVENLQSSKSTRATILVRLDTGGQEGLQYQPGDHIGVCPPNRPGLVEALLSRVEDPPPSTEPVAVEQLEKGSPGGPPPGWVRDPRLPPCTLRQALTYFLDITSPPSPRLLRLLSTLAEESSEQQELEALSQDPRRYEEWKWFSCPTLLEVLEQFPSVALPAPLILTQLPLLQPRYYSVSSAPSAHPGEIHLTIAVLAYRTQDGLGPLHYGVCSTWMSQLKAGDPVPCFIRGAPSFRLPPDPNLPCILVGPGTGIAPFRGFWQDRLHDIEIKGLQPAPMTLVFGCRCSQLDHLYRDEVLDAQQRGVFGQVLTAFSRDPGSPKTYVQDLLRTELAAEVHRVLCLEQGHMFVCGDVTMATSVLQTVQRILATEGGMELDEAGDVIGVLRDQQRYHEDIFGLTLRTQEVTSRIRTQSFSLQERQLRGAVPWSFDPPGPEIPGS
As to B1, the binding entry is “binds”.

Source of the values: publication PMC9880283.
